Test results: US12024504B2, “1-methyl-1H-pyrazol-3-yl derivatives for use in the treatment of neovascular diseases” (EXONATE LIMITED, priority 2021, dated 2024)
Some of these results come from one statement about several compounds together.

Experiment: Porcine scleral permeability (modified Ussing chamber)
Assay type: in vitro ADME
Details: 24 hours, FIG. 1
Description: Scleral permeability was measured using a modified Ussing chamber assembly in the initial eye drop formulation containing 1% hydroxypropyl methyl cellulose, 0.2% tyloxapol, 3.4% dextrose, 0.006% benzalkonium chloride, and 0.025% ethylenediaminetetraacetic acid with 1% DMSO in PBS (pH 7.4). Porcine excised eye tissues were mounted in the chambers such that the episcleral side faced the donor chamber and the retinal side faced the receiver chamber. The chambers were filled with equal volumes of eye drop formulation, with (donor side) or without (receiver side) 10 μg/mL compound. After 24 hours tissue was removed from the chamber and the receiver side (“vitreous”) sampled. Tissue was dissected into sclera, choroid/RPE, and retina and homogenised. A tracer (SPHINX7; WO 2015/159103) was added, and tissue extracted by acetonitrile extraction as described in Batson et al (2017). Compounds were then analysed by mass spectrometry as described in Batson et al (2017).
To determine whether compounds could get across the sclera of a larger animal, porcine sclera was clamped between two chambers and compounds were added to the sclera with eye drop formulation added to the bottom chamber and compounds added to the top chamber. After 24 hours, the fluid from the bottom chamber (vitreous) and the retinal tissue was isolated and compounds purified by methanol or acetonitrile extraction and HPLC.

Compound | Permeability across porcine sclera (in words)
Cn1ccc(CN2CCN(c3ccc(C(F)(F)F)cc3NC(=O)c3ccc(C4CCOCC4)o3)CC2)n1 [Compound 1, N-(2-(4-((1-methyl-1H-pyrazol-3-yl)methyl)piperazin-1-yl)-5-(trifluoromethyl)phenyl)-5-(tetrahydro-2H-pyran-4-yl)furan-2-carboxamide] | surprisingly high permeability, much higher than the permeability of SPHINX31
Cn1ccc(CN2CCCN(c3ccc(C(F)(F)F)cc3NC(=O)c3ccc(C4CCOCC4)o3)CC2)n1 [Compound 2, N-(2-(4-((1-methyl-1H-pyrazol-3-yl)methyl)-1,4-diazepan-1-yl)-5-(trifluoromethyl)phenyl)-5-(tetrahydro-2H-pyran-4-yl)furan-2-carboxamide] | surprisingly high permeability, much higher than the permeability of SPHINX31
Cn1ccc(CN2CCCN(c3ccc(Cl)cc3NC(=O)c3ccc(C4CCOCC4)o3)CC2)n1 [Compound 3, N-(5-chloro-2-(4-((1-methyl-1H-pyrazol-3-yl)methyl)-1,4-diazepan-1-yl)phenyl)-5-(tetrahydro-2H-pyran-4-yl)furan-2-carboxamide] | surprisingly high permeability, much higher than the permeability of SPHINX31
